Where “and” joins values, the source holds several entries; their conditions need not be identical. Equal entries are not always repeated. This continues a long series; more values of the same kind are listed elsewhere.
Biological target: mGluR2 (Mus musculus, UniProt Q14BI2, A548F)
Test: Live-cell FRET, azi-CRD (cysteine-rich domain) sensor in HEK293T cells
Conditions: Glutamate + 10μM modulator (NAM), single-cell replicate

Sequences of proteins named here, by UniProt entry; tags and fusion partners are left off. Residues count along the entry.
UniProt Q14BI2, 19-872 A548F: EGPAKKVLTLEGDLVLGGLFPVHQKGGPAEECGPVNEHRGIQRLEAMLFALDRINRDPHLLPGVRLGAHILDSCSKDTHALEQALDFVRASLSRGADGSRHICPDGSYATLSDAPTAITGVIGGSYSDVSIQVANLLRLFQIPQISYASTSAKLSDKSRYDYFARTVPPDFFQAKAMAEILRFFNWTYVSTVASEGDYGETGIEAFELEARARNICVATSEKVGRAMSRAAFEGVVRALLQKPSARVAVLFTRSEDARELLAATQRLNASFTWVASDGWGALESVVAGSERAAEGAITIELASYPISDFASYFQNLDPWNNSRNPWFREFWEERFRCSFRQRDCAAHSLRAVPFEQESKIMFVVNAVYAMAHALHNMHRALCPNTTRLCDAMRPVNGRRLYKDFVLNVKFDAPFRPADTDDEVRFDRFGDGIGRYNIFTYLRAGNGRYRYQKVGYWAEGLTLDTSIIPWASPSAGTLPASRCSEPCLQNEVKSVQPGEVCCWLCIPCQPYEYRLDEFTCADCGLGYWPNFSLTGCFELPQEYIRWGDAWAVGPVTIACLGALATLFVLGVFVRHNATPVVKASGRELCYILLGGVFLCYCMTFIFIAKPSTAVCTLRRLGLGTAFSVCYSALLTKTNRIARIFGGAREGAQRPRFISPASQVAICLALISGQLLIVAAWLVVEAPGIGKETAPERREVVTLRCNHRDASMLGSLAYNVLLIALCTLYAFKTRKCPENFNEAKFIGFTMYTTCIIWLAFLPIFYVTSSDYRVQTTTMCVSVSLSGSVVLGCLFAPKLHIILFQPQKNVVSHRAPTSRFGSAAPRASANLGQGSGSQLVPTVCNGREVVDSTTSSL

- azi-CRD normalized FRET response, individual cell (log[Glutamate] (M) -3): 0.8599
Substance: MNI-137
- azi-CRD normalized FRET response, individual cell (log[Glutamate] (M) -4.52288): 0.612 and 0.5545 and 0.6252 and 0.5963 and 0.6607 and 0.6606 and 0.6075 (2×) and 0.6161 and 0.6314 and 0.5831 and 0.6211 and 0.6312 and 0.6918 and 0.4556 and 0.5894 and 0.603 and 0.6513 and 0.6442 and 0.4891 and 0.5784 and 0.6509 and 0.5804 and 0.6046 and 0.6034 and 0.561 and 0.5497

— PMC9299836 (eLife, 2022)
